Laboratory results taken from the supplement of paper PMC10849652.
The other results are listed elsewhere or left out.

The chains behind the UniProt entries cited, without tags or fusion partners. Where a name states a change or a piece, a line headed by the entry shows the natural chain unless it says otherwise.
UniProt Q9Y3T6: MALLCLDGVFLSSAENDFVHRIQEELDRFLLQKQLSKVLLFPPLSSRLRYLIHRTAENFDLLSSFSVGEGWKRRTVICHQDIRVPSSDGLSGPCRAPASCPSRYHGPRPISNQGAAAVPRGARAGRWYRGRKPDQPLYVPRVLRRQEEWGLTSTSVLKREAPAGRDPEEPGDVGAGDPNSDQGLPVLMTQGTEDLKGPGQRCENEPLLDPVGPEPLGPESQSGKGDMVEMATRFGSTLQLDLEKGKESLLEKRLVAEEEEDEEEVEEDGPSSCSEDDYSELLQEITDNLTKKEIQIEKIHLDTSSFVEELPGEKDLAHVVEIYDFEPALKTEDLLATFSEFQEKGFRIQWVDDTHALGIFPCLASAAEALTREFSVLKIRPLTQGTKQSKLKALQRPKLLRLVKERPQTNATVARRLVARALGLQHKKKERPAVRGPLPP
UniProt P17706: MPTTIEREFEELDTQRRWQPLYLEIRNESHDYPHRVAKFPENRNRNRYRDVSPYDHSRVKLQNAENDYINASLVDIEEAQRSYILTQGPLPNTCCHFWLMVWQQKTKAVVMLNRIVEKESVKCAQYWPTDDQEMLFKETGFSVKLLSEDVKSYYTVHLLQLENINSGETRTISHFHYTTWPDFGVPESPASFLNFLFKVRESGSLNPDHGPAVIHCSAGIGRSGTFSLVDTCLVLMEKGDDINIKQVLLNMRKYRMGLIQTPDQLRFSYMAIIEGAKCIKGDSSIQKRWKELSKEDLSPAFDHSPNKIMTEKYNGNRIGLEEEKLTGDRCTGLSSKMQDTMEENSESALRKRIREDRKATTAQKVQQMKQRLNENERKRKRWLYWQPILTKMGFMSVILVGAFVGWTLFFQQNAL
UniProt Q9BQI7: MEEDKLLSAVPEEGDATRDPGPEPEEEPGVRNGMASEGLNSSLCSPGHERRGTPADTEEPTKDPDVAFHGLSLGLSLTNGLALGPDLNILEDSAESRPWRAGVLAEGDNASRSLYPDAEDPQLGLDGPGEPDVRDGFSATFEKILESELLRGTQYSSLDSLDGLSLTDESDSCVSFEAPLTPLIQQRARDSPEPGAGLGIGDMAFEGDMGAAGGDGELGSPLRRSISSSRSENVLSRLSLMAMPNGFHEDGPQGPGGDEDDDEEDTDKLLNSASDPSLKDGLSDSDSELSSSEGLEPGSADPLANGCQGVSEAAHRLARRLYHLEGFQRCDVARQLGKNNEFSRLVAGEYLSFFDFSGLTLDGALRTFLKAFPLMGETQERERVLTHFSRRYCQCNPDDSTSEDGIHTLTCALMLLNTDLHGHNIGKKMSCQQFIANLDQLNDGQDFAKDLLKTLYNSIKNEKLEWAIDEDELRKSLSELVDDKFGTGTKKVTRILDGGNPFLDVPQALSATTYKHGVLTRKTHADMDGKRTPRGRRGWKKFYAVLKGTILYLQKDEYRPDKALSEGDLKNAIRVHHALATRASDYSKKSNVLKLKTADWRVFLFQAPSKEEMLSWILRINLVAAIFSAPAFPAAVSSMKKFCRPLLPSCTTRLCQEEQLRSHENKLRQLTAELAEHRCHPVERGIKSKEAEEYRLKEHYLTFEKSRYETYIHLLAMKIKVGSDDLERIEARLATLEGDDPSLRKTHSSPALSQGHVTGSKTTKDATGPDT
UniProt Q8N0Z8: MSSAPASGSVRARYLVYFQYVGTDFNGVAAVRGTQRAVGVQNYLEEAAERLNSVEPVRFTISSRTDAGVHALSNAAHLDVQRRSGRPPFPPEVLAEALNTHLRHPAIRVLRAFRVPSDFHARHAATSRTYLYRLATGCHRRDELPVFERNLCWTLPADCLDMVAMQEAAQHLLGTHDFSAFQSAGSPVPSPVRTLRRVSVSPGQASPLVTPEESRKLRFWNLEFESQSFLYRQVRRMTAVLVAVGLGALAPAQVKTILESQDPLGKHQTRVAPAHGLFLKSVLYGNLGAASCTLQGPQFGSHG
UniProt P28074: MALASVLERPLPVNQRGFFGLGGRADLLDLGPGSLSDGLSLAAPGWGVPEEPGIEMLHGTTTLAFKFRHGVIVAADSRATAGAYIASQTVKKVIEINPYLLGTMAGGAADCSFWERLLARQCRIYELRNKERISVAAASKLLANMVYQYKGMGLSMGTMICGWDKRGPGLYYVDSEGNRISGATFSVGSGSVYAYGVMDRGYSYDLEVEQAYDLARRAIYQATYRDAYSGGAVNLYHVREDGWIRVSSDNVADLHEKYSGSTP
UniProt P25788: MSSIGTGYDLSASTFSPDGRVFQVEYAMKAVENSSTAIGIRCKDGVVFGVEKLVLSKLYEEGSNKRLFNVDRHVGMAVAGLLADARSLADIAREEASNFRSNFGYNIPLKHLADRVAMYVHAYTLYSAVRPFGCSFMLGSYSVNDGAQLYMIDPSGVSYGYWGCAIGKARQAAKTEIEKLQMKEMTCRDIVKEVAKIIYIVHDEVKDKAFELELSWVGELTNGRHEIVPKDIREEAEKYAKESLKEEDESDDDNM
UniProt Q15032: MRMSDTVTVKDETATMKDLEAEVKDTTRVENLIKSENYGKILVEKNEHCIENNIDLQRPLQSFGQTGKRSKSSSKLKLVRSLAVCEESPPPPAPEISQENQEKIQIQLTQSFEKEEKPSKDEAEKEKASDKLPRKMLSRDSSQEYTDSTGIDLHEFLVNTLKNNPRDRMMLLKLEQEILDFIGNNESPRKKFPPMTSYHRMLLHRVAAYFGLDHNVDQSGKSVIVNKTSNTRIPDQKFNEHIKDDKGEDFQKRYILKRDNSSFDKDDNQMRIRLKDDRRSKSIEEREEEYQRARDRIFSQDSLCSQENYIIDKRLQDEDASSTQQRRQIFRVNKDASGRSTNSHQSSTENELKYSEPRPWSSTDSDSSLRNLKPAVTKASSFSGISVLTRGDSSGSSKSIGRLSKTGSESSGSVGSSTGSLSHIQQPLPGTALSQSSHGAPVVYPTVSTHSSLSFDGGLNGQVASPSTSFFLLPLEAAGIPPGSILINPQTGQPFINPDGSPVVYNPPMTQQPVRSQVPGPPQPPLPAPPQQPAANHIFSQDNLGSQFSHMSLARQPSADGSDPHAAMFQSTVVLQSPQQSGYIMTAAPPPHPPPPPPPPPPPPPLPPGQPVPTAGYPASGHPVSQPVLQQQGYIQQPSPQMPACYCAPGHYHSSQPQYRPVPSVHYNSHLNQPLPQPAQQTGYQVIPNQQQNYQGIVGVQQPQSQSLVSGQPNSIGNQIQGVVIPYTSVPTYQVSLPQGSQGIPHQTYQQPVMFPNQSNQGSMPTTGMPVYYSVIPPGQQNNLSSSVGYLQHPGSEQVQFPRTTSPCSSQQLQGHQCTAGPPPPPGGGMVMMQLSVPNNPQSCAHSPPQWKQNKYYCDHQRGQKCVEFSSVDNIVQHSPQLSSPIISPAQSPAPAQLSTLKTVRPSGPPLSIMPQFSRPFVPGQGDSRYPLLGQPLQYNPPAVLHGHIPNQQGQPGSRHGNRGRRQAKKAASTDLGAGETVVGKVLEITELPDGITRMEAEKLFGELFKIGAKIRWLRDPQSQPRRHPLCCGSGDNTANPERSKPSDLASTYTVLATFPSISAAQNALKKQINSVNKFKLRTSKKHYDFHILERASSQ
UniProt Q96PU8: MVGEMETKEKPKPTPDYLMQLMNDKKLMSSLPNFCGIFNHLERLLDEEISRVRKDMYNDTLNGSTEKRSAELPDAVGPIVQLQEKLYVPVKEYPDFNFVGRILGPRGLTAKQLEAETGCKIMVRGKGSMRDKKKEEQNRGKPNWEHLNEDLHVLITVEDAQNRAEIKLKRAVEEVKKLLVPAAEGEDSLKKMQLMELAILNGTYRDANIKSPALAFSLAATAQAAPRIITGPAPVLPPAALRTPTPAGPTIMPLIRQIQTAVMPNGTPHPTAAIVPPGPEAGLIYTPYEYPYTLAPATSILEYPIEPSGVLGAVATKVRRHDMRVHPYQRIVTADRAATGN
UniProt O00232: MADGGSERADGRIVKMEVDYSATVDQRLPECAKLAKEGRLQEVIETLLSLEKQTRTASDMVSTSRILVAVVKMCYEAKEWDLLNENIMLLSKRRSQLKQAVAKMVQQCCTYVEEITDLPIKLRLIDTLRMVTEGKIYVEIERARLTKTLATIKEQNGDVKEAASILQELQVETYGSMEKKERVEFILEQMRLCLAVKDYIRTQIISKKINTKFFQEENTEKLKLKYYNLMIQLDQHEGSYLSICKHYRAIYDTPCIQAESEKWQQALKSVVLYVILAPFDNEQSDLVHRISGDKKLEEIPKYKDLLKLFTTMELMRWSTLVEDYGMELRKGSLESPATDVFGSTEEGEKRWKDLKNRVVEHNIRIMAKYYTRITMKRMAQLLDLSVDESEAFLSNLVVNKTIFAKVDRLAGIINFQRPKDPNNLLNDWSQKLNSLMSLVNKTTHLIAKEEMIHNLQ
UniProt Q12913: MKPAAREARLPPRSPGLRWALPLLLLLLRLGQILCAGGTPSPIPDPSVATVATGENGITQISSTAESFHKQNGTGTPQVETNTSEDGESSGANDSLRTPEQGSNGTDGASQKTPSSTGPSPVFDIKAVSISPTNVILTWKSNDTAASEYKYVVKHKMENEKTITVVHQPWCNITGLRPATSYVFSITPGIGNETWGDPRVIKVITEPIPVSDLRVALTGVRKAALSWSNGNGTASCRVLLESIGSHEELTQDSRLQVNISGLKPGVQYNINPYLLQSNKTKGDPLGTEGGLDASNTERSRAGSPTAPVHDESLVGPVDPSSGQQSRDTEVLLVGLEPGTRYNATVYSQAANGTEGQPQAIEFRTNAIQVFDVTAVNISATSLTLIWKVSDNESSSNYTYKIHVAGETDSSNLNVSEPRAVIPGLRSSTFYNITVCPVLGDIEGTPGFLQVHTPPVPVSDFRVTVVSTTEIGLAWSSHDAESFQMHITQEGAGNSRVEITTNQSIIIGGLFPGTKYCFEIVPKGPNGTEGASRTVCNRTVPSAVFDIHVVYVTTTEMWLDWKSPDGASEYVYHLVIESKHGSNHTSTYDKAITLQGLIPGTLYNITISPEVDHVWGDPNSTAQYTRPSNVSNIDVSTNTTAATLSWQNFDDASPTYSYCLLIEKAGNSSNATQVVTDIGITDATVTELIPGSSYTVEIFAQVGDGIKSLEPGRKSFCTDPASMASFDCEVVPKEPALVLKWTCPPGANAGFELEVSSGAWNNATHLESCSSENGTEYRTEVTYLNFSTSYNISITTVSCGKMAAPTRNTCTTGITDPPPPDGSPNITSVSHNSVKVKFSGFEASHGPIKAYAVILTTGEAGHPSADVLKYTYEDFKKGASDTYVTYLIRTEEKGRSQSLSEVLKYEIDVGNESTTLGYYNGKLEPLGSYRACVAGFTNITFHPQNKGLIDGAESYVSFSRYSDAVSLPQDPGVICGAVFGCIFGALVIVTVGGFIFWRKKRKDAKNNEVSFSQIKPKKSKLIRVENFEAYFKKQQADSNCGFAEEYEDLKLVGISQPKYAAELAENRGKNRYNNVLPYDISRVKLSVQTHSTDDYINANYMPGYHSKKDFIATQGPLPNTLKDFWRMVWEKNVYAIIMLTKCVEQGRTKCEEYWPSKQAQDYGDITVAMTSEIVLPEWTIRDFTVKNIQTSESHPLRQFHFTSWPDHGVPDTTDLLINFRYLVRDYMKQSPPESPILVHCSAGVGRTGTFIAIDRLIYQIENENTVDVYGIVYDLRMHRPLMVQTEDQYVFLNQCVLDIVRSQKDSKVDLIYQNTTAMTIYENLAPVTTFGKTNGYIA
UniProt P60484: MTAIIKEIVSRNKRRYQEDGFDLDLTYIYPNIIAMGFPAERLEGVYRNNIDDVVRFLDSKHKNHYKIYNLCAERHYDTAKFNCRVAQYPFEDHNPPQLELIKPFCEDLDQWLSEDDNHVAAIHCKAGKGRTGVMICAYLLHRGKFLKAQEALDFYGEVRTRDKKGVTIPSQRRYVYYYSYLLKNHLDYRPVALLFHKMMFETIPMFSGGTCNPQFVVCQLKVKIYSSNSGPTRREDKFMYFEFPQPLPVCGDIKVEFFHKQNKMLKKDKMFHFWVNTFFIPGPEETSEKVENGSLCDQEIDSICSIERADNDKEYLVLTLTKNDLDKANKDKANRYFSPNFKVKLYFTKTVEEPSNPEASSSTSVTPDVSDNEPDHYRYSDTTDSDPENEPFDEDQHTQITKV
UniProt P15151: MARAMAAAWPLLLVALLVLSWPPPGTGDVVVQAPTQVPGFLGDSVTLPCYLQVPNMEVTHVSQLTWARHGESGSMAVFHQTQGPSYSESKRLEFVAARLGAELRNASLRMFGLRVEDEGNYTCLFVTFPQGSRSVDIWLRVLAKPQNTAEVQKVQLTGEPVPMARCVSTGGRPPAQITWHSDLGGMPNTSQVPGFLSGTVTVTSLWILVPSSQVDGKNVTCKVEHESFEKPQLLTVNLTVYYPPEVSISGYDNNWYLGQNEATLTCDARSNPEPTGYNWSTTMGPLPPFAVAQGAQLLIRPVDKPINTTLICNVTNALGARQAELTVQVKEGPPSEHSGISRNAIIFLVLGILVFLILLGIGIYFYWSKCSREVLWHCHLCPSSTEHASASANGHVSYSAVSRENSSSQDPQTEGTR

Key:
Assay in all cases: log2 fold change, soluble protein after heating vs DMSO (PISA); higher = thermal stabilisation; K562 cells, 10 uM, 30 min; active = over 0.2 and 3.5 SD of the protein, either way, in both replicates (recomputed)
[1] = compound: CC1=C(C=C(C=C1)NC(=O)C2=CC(=CC=C2)C(C)(C)C#N)NC3=CC4=C(C=C3)N=CN(C4=O)C
Method in brief: (§1)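 For each measurement, 10 μM compound was applied for 30 min to K562 cells at 2×10^6 cells/mL. Aliquots were heated for 3 min across 48°C-58°C, pooled, and extracted in PBS with 0.5% NP-40 at 4°C; the supernatant after 21,000xg for 90 min was soluble protein. This was quantified by TMTpro 16plex LC-MS/MS with channel sums equalised, and thermal stability was reported relative to control samples from duplicates, on a log2 fold-change scale.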

[2] = compound: CC1=C(C=C(C=C1)NC(=O)C2=CC(=CC=C2)N(C)C)NC(=O)C3=CC=C(C=C3)O
Method in brief: as §1

[3] = compound: CC1=CC=C(C=C1)SC2=C3C=C(SC3=CN=C2)C(=O)N
Method in brief: as §1

[4] = compound: CC1=NC(=CC=C1)C2=C(N=C(N2)C(C)(C)C)C3=CC4=NC=CN=C4C=C3
Method in brief: as §1

Nexturastat A = compound: CCCCN(Cc1ccc(C(=O)NO)cc1)C(=O)Nc1ccccc1 [Nexturastat A]
Method in brief: as §1

vemurafenib = compound: CCCS(=O)(=O)Nc1ccc(F)c(C(=O)c2c[nH]c3ncc(-c4ccc(Cl)cc4)cc23)c1F [vemurafenib]
Method in brief: as §1

[5] = compound: CCCS(=O)(=O)Nc1ccc(F)c(C(=O)c2c[nH]c3ncc(Cl)cc23)c1F
Method in brief: as §1

givinostat = compound: CCN(CC)Cc1ccc2cc(COC(=O)Nc3ccc(C(=O)NO)cc3)ccc2c1 [givinostat]
Method in brief: as §1

barasertib = compound: CCN(CCCOc1ccc2c(Nc3cc(CC(=O)Nc4cccc(F)c4)[nH]n3)ncnc2c1)CCOP(=O)(O)O [barasertib]
Method in brief: as §1

[6] = compound: CC[C@@H]1C(=O)N(C)c2cnc(Nc3ccc(C(=O)NC4CCN(C)CC4)cc3OC)nc2N1C1CCCC1
Method in brief: as §1

volasertib = compound: CC[C@@H]1C(=O)N(C)c2cnc(Nc3ccc(C(=O)N[C@H]4CC[C@H](N5CCN(CC6CC6)CC5)CC4)cc3OC)nc2N1C(C)C [volasertib]
Method in brief: as §1

[7] = compound: CC[C@H](C)N1C=C(C2=C(C=C(C=C21)C3=CN=C(C=C3)N4CCNCC4)C(=O)NCC5=C(C=C(NC5=O)C)C)C
Method in brief: as §1

epoxomicin = compound: CC[C@H](C)[C@@H](C(=O)N[C@@H]([C@@H](C)O)C(=O)N[C@@H](CC(C)C)C(=O)[C@]1(CO1)C)NC(=O)[C@H]([C@@H](C)CC)N(C)C(=O)C [epoxomicin]
Method in brief: as §1

[8] = compound: CCn1c(C(=O)N(C2CC2)C2CC2)cc2c3c(ncn3C)c(Nc3cc(C)n(C)n3)nc21
Method in brief: as §1

[9] = compound: CCn1cc(-c2ccnc3[nH]c(-c4cccc(CN(C)C)c4)cc23)c(-c2ccc(NC(=O)N(C)C)cc2)n1
Method in brief: as §1

[10] = compound: CN(C)CC(=O)Nc1ccc2[nH]c(=O)c3ccccc3c2c1
Method in brief: as §1

rosiglitazone = compound: CN(CCOC1=CC=C(C=C1)C[C@H]2C(=O)NC(=O)S2)C3=CC=CC=N3 (racemic) [rosiglitazone]
Method in brief: as §1

[11] = compound: CN1C2=C(C3=C1C(=O)N(N=C3)CC4=CC(=CC=C4)N)SC(=C2)S(=O)C
Method in brief: as §1

[12] = compound: CN1CCC(CNc2ccc3ncc(-c4cccc(OC(F)(F)F)c4)n3n2)CC1
Method in brief: as §1

[13] = compound: CCCc1cc(C)[nH]c(=O)c1CNC(=O)c1cc(-c2ccnc(N3CCN(C)CC3)c2)cc2c1cnn2C(C)C
Method in brief: as §1

Measured: log2 fold change

PYCR1 isoform 3 (UniProt P32322)
inactive: [1] 0.083 | [2] 0.009 | [3] 0.005 | [4] 0.081 | Nexturastat A -0.158 | vemurafenib 0.056 | [5] -0.006 | givinostat -0.037 | barasertib -0.022 | [6] -0.014 | volasertib 0.062 | [7] -0.027 | epoxomicin 0.028 | [8] 0.042 | [9] -0.073 | [10] 0.029 | rosiglitazone -0.015 | [11] -0.042 | [12] 0.098

R3HCC1 (UniProt Q9Y3T6)
inactive: [1] 0.114 | [2] 0.004 | [3] -0.02 | [4] -0.012 | vemurafenib -0.107 | [5] 0.09 | givinostat 0.064 | volasertib -0.334 | [7] 0.137 | [8] 0.123 | [9] 0.114 | [10] 0.026 | [12] 0.056

PTPN2 (UniProt P17706)
inactive: [1] 0.082 | [2] -0.07 | [3] -0.002 | [4] -0.02 | Nexturastat A 0.045 | vemurafenib 0.076 | [5] 0.077 | [13] 0.048 | givinostat 0.073 | barasertib 0.131 | [6] -0.04 | volasertib -0.07 | epoxomicin 0.098 | [8] -0.106 | [9] -0.032 | [10] 0.031 | rosiglitazone 0.097 | [11] 0.05 | [12] -0.016

PSMD1 (UniProt Q99460)
inactive: [1] 0.06 | [2] 0.021 | [3] -0.001 | [4] -0.011 | Nexturastat A 0.055 | vemurafenib -0.041 | [5] -0.049 | [13] 0.05 | givinostat -0.046 | barasertib -0.036 | [6] 0.042 | volasertib 0.146 | [7] -0.001 | epoxomicin -0.278 | [9] 0.028 | [10] -0.005 | [11] 0.043 | [12] 0.059

PSEN2 (UniProt P49810)
inactive: [1] -0.017 | [2] 0.108 | [13] -0.04 | givinostat -0.005 | [8] 0.007 | [9] 0.088 | [11] 0.173 | [12] -0.009

PSD2 (UniProt Q9BQI7)
inactive: [1] 0.054 | [2] -0.063 | Nexturastat A -0.054 | vemurafenib -0.32 | [13] -0.1 | [7] -0.237 | epoxomicin 0.003 | [10] -0.033

PSD4 (UniProt Q8NDX1)
inactive: [1] -0.067 | [2] -0.189 | [4] -0.014 | Nexturastat A 0.061 | vemurafenib -0.1 | givinostat 0.189 | [6] 0.031 | [7] 0.079 | epoxomicin -0.148 | [8] -0.086 | [10] -0.092 | [11] 0.292

PUS1 (UniProt Q9Y606)
inactive: [1] -0.164 | [2] 0.028 | [3] 0.024 | [4] 0.185 | Nexturastat A 0.235 | vemurafenib 0.062 | [5] 0.132 | givinostat 0.121 | barasertib -0.043 | [6] -0.173 | volasertib -0.131 | epoxomicin -0.039 | [8] -0.136 | [9] -0.051 | [10] 0.016 | rosiglitazone 0.137 | [12] 0.037

PUSL1 (UniProt Q8N0Z8)
inactive: [1] -0.048 | [2] -0.001 | Nexturastat A 0.17 | [13] -0.217 | givinostat 0.256 | [6] 0.096 | epoxomicin -0.186 | [8] 0.056 | [9] -0.048 | [12] -0.14

PSMB5 isoform 3 (UniProt P28074)
inactive: [1] -0.346 | [2] -0.013 | [3] -0.294 | Nexturastat A 0.126 | vemurafenib -0.477 | [5] -0.5 | barasertib 0.033 | [6] 0.268 | volasertib 0.118 | [10] -0.426 | rosiglitazone 0 | [11] 0.238

PSMD2 (UniProt Q13200)
inactive: [1] 0.005 | [2] 0.012 | [3] -0.025 | [4] -0.064 | Nexturastat A 0.024 | vemurafenib -0.091 | [5] -0.014 | [13] 0.136 | givinostat -0.048 | barasertib -0.057 | [6] 0.049 | volasertib 0.089 | [7] -0.009 | [9] 0.07 | [10] -0.04 | [11] 0.021 | [12] 0.055
active: epoxomicin -0.365

PSMA3 (UniProt P25788)
inactive: [1] 0.01 | [2] 0.027 | [3] -0.025 | [4] 0.013 | Nexturastat A -0.039 | vemurafenib -0.001 | [5] -0.019 | [13] -0.011 | givinostat -0.011 | barasertib -0.034 | [6] 0.067 | volasertib 0.134 | [7] -0.025 | epoxomicin -0.169 | [9] 0.002 | [10] -0.003 | [11] -0.027 | [12] 0.046

PTPA (UniProt A6PVN8)
active: givinostat -0.857
inactive: [1] 0.062 | [2] -0.128 | [3] -0.15 | Nexturastat A -0.038 | vemurafenib -0.065 | [5] -0.11 | [13] 0.038 | barasertib 0.01 | [6] 0.051 | volasertib -0.041 | [7] -0.03 | epoxomicin 0.053 | [9] 0.047 | [10] 0.016 | [11] 0.069 | [12] 0.011

Two neighbouring entries out of the list so far, quoted:
PSMD2 (UniProt Q13200)
inactive: [1] 0.005 | [2] 0.012 | [3] -0.025 | [4] -0.064 | Nexturastat A 0.024 | vemurafenib -0.091 | [5] -0.014 | [13] 0.136 | givinostat -0.048 | barasertib -0.057 | [6] 0.049 | volasertib 0.089 | [7] -0.009 | [9] 0.07 | [10] -0.04 | [11] 0.021 | [12] 0.055
active: epoxomicin -0.365

PSMA3 (UniProt P25788)
inactive: [1] 0.01 | [2] 0.027 | [3] -0.025 | [4] 0.013 | Nexturastat A -0.039 | vemurafenib -0.001 | [5] -0.019 | [13] -0.011 | givinostat -0.011 | barasertib -0.034 | [6] 0.067 | volasertib 0.134 | [7] -0.025 | epoxomicin -0.169 | [9] 0.002 | [10] -0.003 | [11] -0.027 | [12] 0.046

Continued:

R3HDM1 isoform 2 (UniProt Q15032)
inactive: [1] 0.041 | [2] -0.164 | [3] 0.093 | [4] 0.084 | vemurafenib 0.071 | [5] -0.057 | [13] 0.012 | givinostat 0.009 | barasertib -0.096 | [6] -0.023 | volasertib -0.046 | [7] 0.169 | [8] -0.08 | [9] 0.086 | [10] 0.037 | rosiglitazone 0.032 | [11] -0.034 | [12] -0.255

QKI (UniProt Q96PU8)
inactive: [1] 0.05 | [2] -0.037 | [3] 0.019 | [4] 0.036 | Nexturastat A -0.109 | vemurafenib 0.033 | [5] 0.084 | [13] -0.045 | givinostat 0.023 | barasertib -0.003 | [6] -0.008 | volasertib -0.1 | [7] 0.084 | epoxomicin 0.049 | [9] 0.023 | [10] 0.034 | [11] 0.017 | [12] -0.172

PSMD12 (UniProt O00232)
inactive: [1] 0.066 | [2] -0.004 | [3] -0.005 | [4] -0.011 | Nexturastat A 0.047 | vemurafenib -0.031 | [5] 0.009 | [13] 0.052 | givinostat -0.002 | barasertib -0.044 | [6] 0.03 | volasertib 0.158 | [7] 0.02 | epoxomicin -0.278 | [9] 0.017 | [10] -0.007 | [11] 0.01 | [12] 0.062

PTPRJ (UniProt Q12913)
inactive: [1] 0.258 | Nexturastat A -0.053 | epoxomicin 0.02

PTEN isoform 2 (UniProt P60484)
inactive: [2] -0.035 | [3] 0.13 | [4] 0.064 | [5] -0.016 | givinostat -0.086 | [6] 0.024 | volasertib 0.05 | [9] -0.016 | [12] -0.098

PVR (UniProt P15151)
inactive: [1] 0.03 | [3] 0.001 | Nexturastat A -0.082 | vemurafenib 0.028 | [5] 0.023 | [13] -0.07 | barasertib 0.015 | [6] 0.046 | volasertib -0.029 | epoxomicin -0.016 | [9] -0.064 | [10] 0.034 | rosiglitazone -0.016 | [11] -0.05 | [12] 0.049

PRUNE2 isoform 3 (UniProt Q8WUY3)
inactive: [2] -0.079 | [3] 0.051 | [4] 0.082 | Nexturastat A -0.035 | vemurafenib 0.103 | [5] 0.062 | [13] 0.068 | givinostat 0.038 | [6] -0.241 | volasertib -0.109 | [7] 0.107 | epoxomicin 0.097 | [8] 0.026 | [10] 0.028 | [11] -0.114
